Construct, isoform or probe ends are uncertain for at least one entry. For part of these data: The comparison behind a weaker result is the experiment's own reference, which may not be listed here. For part of these data: At least one verdict was read from the data and is not stated in words by the source.
Columns and labels:
[1] = target: cSID1 wild type (Caenorhabditis elegans) (UniProt Q9GZC8); experiment: cryo-EM; settings: putative positively charged ion at S66/D70/D171; cryo-EM: 25 mM HEPES pH 7.4, 150 mM NaCl, 0.01% GDN, 100 uM dsRNA, 30 min; recombinant protein; protein details: His6 and FLAG after the signal peptide
[2] = target: cSID1 third combined mutant (Caenorhabditis elegans) (UniProt Q9GZC8); experiment: EMSA; settings: 0-24 uM protein, 1 uM dsRNA; EMSA: 25 mM Tris pH 8.0, 25 mM NaCl, room temperature, 60 min, 6% native gel in 0.5x TBE; recombinant protein; protein details: His6 and FLAG after the signal peptide
[3] = target: cSID1 wild type (Caenorhabditis elegans) (UniProt Q9GZC8); experiment: EMSA; settings: 0-24 uM protein, 1 uM dsRNA; EMSA: 25 mM Tris pH 8.0, 25 mM NaCl, room temperature, 60 min, 6% native gel in 0.5x TBE; recombinant protein; protein details: His6 and FLAG after the signal peptide

By UniProt entry, the sequences of proteins in these tests, tags left out. Where a name states a change or a piece, a line headed by the entry shows the natural chain unless it says otherwise. Residues count along the entry.
UniProt Q9GZC8, 18-776: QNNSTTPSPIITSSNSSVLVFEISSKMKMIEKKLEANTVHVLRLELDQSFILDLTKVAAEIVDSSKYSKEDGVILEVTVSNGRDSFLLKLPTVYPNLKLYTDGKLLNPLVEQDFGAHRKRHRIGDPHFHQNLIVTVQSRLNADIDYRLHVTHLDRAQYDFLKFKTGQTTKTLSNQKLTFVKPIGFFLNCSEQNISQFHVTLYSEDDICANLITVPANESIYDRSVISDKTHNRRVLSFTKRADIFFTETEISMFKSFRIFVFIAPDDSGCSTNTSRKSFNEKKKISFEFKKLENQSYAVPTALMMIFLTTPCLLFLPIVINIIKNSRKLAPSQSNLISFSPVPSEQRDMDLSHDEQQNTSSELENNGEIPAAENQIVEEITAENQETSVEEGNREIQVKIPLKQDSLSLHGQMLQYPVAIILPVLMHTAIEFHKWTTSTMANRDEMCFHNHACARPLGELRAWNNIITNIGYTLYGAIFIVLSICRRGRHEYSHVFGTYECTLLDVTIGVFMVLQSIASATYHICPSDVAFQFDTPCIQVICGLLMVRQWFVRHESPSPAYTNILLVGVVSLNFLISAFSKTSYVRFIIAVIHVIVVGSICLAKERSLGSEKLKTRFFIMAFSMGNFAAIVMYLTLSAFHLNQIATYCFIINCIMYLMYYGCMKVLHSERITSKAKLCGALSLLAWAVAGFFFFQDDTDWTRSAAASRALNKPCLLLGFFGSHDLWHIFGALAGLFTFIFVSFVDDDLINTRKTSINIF

Row | Sequence | binding result [1] | binding result [2] | binding result [3]
1 | GGCCGGGGGACGGGCUGGGAUGACAGAAGUCGCUUGGUGCAGAUCGGGAC / GUCCCGAUCUGCACCAAGCGACUUCUGUCAUCCCAGCCCGUCCCCCGGCC [50-bp dsRNA] | binds | – | –
2 | GGCCGGGGGACGGGCUGGGAUGACAGAAGUCGCUUGGUGCAGAUCGGGAC / GUCCCGAUCUGCACCAAGCGACUUCUGUCAUCCCAGCCCGUCCCCCGGCC [FAM 50-bp dsRNA] | – | binds more weakly | binds
